Laboratory results reported in PubChem BioAssay AID2685 (National Center for Advancing Translational Sciences (NCATS), 2010).
The other results are listed elsewhere or left out. The main result of the screen is listed elsewhere. These columns were measured beside it and carry no call. The list favours compounds with an active or inconclusive main result. Potencies come from curve fits of mixed quality, noted in brackets.

Assay: qHTS Assay for Lipid Storage Modulators in Drosophila S3 Cells;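 as to cell number change: cells counted by Cell Tracker Red CMTPX staining in the red channel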
Details: BODIPY lipid droplet fluorescence, 18-24 h; for cell number change: measured here: cell count max response, cells fed with added oleic acid
Summary of the method: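 Laser-scanning cytometry quantifies lipid droplet accumulation (500–530 nm total intensity; droplet/cell object ratio) in oleic acid-fed (400 uM added) Drosophila S3 cells treated with a concentration series. 20 uM Triacsin C defined 100% inhibition.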

[1] = measured here: lipid fluorescence (Fed channel) AC50, cells fed with added oleic acid
[2] = measured here: cell number channel AC50, cells fed with added oleic acid

What does the source list for `CCc1ccc2nc3nc(C)cc(C)c3c(N)c2c1`?
cell number change: -1.27%; AC50 [1]: 0.146 µM [falling, full curve, poor fit]

For `CCC(C)(C)n1nnnc1C(C(C)C)N(CCN1CCOCC1)Cc1cc2cccc(C)c2[nH]c1=O` (stereo unspecified), which cell number change is on record?
Its cell number change is 39.9%.

What about the AC50 [2] of the same compound?
The AC50 was 1.03 µM [rising, full curve, poor fit].

And the AC50 [1]?
Its AC50 is 2.91 µM [rising, partial curve].

Which cell number change does the source give for `CCN(CC)CCCNC(=O)Cn1ccc2ccccc2c1=O` here?
The cell number change was -29.6%.

What about the AC50 [2] of the same compound?
Its AC50 is 0.82 µM [falling, full curve].

And the AC50 [1]?
The AC50 was 0.231 µM [falling, full curve].

What does the source list for `Cc1occc1C(=O)NNS(=O)(=O)c1ccc([N+](=O)[O-])cc1`?
cell number change: 1.3%; AC50 [1]: 18.4 µM [falling, partial curve]

For `Cc1nn(Cc2ccccc2)c(C)c1C(=O)Nc1ccc(N2CCOCC2)cc1`, which cell number change is on record?
The cell number change was 51.3%.

And the AC50 [2]?
Its AC50 is 29.1 µM [rising, single point].

What about the AC50 [1] of the same compound?
The AC50 was 29.1 µM [rising, single point].

With `CC(Sc1nccn1C)C(=O)NC1(C#N)CCCCC1` (stereo unspecified) as the compound, how does the cell number change read?
Its cell number change is 2.05%.

What about the AC50 [1] of the same compound?
The AC50 was 29.1 µM [rising, single point].

With `N#C/C(=C1\C(=O)Nc2c(Cl)cc(Cl)cc21)c1nnc2n1CCCCC2` as the compound, how does the cell number change read?
The cell number change was -63.2%.

And the AC50 [2]?
The AC50 was 16.4 µM [falling, single point].

Which cell number change does the source give for `Cn1c(N)c(C(=O)COC(=O)C2CCCN2C(=O)c2cccs2)c(=O)n(C)c1=O` (stereo unspecified) here?
The cell number change was 32.4%.

For `COc1ccc(/C=C(\C#N)C(=O)OCC(=O)NC2CC2)cc1`, which cell number change is on record?
The cell number change was 60.7%.

Which AC50 [1] does the source give for `Cc1ccccc1N1CC(C(=O)Nc2ccc(S(=O)(=O)N3CCCC3)cc2)CC1=O` (stereo unspecified) here?
The AC50 was 2.91 µM [falling, single point].

Which cell number change does the source give for `Cc1nn(C(C)C(=O)N2CCOCC2)c(=O)c2nn(-c3ccccc3)c(C)c12` (stereo unspecified) here?
Its cell number change is 19.2%.

What about the AC50 [1] of the same compound?
The AC50 was 29.1 µM [rising, single point].

Which cell number change does the source give for `CN1CCc2c(sc(NC(=O)C3COc4ccccc4O3)c2C(N)=O)C1` (stereo unspecified) here?
Its cell number change is -4.96%.

And the AC50 [1]?
The AC50 was 29.1 µM [falling, single point].

Which results are given for `NC(=O)c1ccsc1NC(=O)COC(=O)COc1ccc(C=O)cc1`?
cell number change: 4.45%; AC50 [2]: 6.51 µM [falling, single point]

Which cell number change does the source give for `Cc1ccc(S(=O)(=O)/N=C(\CN2CCOCC2)N2CCOCC2)cc1` here?
The cell number change was -0.0806%.

What about the AC50 [1] of the same compound?
Its AC50 is 6.51 µM [falling, single point].

Which AC50 [1] does the source give for `CCN(CC(=O)Nc1ccc(Cl)c(S(=O)(=O)N(C)C)c1)CC(=O)NC(C)C` here?
Its AC50 is 0.58 µM [rising, single point].

Which cell number change does the source give for `O=C(CCN1C(=O)c2ccccc2C1=O)C1=NN[C@@H]2C(=O)N(c3ccc(F)cc3)C(=O)[C@H]12` here?
Its cell number change is 0.549%.

Which cell number change does the source give for `Cc1[nH]c2ccccc2c1C(=O)C(C)OC(=O)c1ccccc1NCCO` (stereo unspecified) here?
The cell number change was -0.227%.

What about the AC50 [2] of the same compound?
Its AC50 is 0.013 µM [rising, full curve, poor fit].

What about the AC50 [1] of the same compound?
Its AC50 is 0.92 µM [rising, partial curve].

With `O=C(O)COCC(=O)Nc1ccc(Oc2ncnc3cc(Cl)ccc23)nc1` as the compound, how does the cell number change read?
The cell number change was 9.29%.

Which cell number change does the source give for `Cc1ccc(CNC(=O)c2ccc(N3CCC4(CC3)CC(c3cccc(Br)c3)=NO4)c([N+](=O)[O-])c2)cc1` here?
Its cell number change is -8.52%.

And the AC50 [1]?
Its AC50 is 3.66 µM [falling, single point].

For `COc1ccc(C(=O)Nc2cccc(C(=O)O)c2)cc1S(=O)(=O)N1CCCC1`, which cell number change is on record?
The cell number change was 3.96%.

What about the AC50 [1] of the same compound?
The AC50 was 0.651 µM [rising, full curve].

With `Cn1c(=O)c2c3c(sc2n2cnnc12)CCC3` as the compound, how does the cell number change read?
The cell number change was -17.6%.

What does the source list for `CCOC(=O)c1sc(NC(=O)C2CC(=O)N(c3ccccc3OC)C2)nc1C` (stereo unspecified)?
cell number change: 32.8%; AC50 [2]: 29.1 µM [rising, single point]; AC50 [1]: 23.1 µM [rising, single point]

Which cell number change does the source give for `CCN(c1ccccc1)S(=O)(=O)c1ccc(F)cc1` here?
The cell number change was 5.34%.

With `CCOC(=O)c1ccc(NC(=S)Nc2ccc(C)cc2)cc1` as the compound, how does the cell number change read?
Its cell number change is 15.9%.

And the AC50 [2]?
Its AC50 is 0.82 µM [rising, full curve, poor fit].

What about the AC50 [1] of the same compound?
The AC50 was 29.1 µM [falling, single point].

Which cell number change does the source give for `CC(C)c1ccc(OCC(=O)Nc2cccc(C(=O)Nc3ccccc3C(=O)O)c2)cc1` here?
The cell number change was 31.4%.

What does the source list for `Cc1ccc(S(=O)(=O)N2CCN(C(=O)COc3ccc(Br)cc3)CC2)cc1`?
cell number change: -17.5%; AC50 [1]: 0.0058 µM [falling, full curve, poor fit]

With `CCN(Cc1ccccc1)c1ccc(/C=N/NC(=O)c2cccc(S(=O)(=O)N3CCOCC3)c2)cc1` as the compound, how does the AC50 [1] read?
The AC50 was 2.31 µM [rising, single point].

Which cell number change does the source give for `Cc1cc(C)cc(NC(=O)C2C3C=CC4(O3)C2C(=O)N(CCCN2CCCC2)C4C(=O)NC2CCCC(C)C2C)c1` (stereo unspecified) here?
Its cell number change is 110%.

What about the AC50 [2] of the same compound?
The AC50 was 7.31 µM [rising, partial curve].

And the AC50 [1]?
Its AC50 is 6.51 µM [falling, single point].

With `CCOC(=O)c1ccccc1N1C(=O)C2Sc3[nH]c(=O)sc3C(/C=C/c3ccccc3)C2C1=O` (stereo unspecified) as the compound, how does the cell number change read?
Its cell number change is 10%.

And the AC50 [1]?
The AC50 was 0.58 µM [falling, single point].

For `COc1cc(/C=C/C(=O)OCC(=O)c2c(N)n(C)c(=O)n(C)c2=O)ccc1O`, which cell number change is on record?
The cell number change was -9.24%.

For `Cc1cc(-c2ccccc2)n2ncc(C#N)c2n1`, which cell number change is on record?
The cell number change was 17.5%.

And the AC50 [1]?
The AC50 was 16.4 µM [rising, single point].

For `O=C(NCc1cccnc1)c1ccc(N2CCOCC2)c([N+](=O)[O-])c1`, which cell number change is on record?
Its cell number change is -11.2%.

And the AC50 [2]?
Its AC50 is 0.146 µM [falling, full curve].

What does the source list for `CCc1ccc(CNC(=O)CN2C(=O)COc3ccccc32)cc1`?
cell number change: 2.57%; AC50 [1]: 4.11 µM [falling, partial curve, poor fit]

Which results are given for `Cc1cc(NC(=O)COC(=O)[C@H](C)NC(=O)c2ccccc2)no1`?
cell number change: 7.47%; AC50 [1]: 0.116 µM [falling, full curve, poor fit]

Which AC50 [2] does the source give for `COc1cccc(C(=O)Nc2ccc(-c3nc4ccccc4o3)c(O)c2)c1` here?
The AC50 was 2.06 µM [falling, partial curve].

What about the AC50 [1] of the same compound?
Its AC50 is 2.06 µM [falling, partial curve].

Which results are given for `O=S(=O)(c1cccc(-c2csc(-c3cccnc3)n2)c1)N1CCCCC1`?
cell number change: 9.22%; AC50 [2]: 0.259 µM [rising, full curve]; AC50 [1]: 0.259 µM [rising, full curve]

For `COc1ccc(C(C(=O)NC2CCCCC2)N(C(=O)CCCC(=O)Nc2ccccn2)c2ccc3c(c2)OCCO3)cc1` (stereo unspecified), which cell number change is on record?
Its cell number change is 9.77%.

What about the AC50 [1] of the same compound?
The AC50 was 32.6 µM [rising, single point].
